This experiment has as its system L1210 leukemia ip in BDF1 mice, survival T/C. Kind of experiment: NCI In Vivo Anticancer Drug Screen. Data for tumor model L1210 Leukemia (intraperitoneal) in B6D2F1 (BDF1) mice. To be noted: T/C endpoint: mean survival time, higher T/C = longer survival.
[1] abbreviates: dose: 25.0 mg/kg/injection, schedule: Q04DX003 (ip), vehicle: saline.
Where [2] appears, read: dose: 100.0 mg/kg/injection, schedule: Q04DX003 (ip), vehicle: saline.
The mark [3] stands for this setting: dose: 200.0 mg/kg/injection, schedule: Q04DX003 (ip), vehicle: saline.
Setting [4] is: dose: 400.0 mg/kg/injection, schedule: Q04DX003 (ip), vehicle: saline.
Setting [5] is: dose: 400.0 mg/kg/injection, schedule: Q04DX003 (ip), vehicle: saline with Tween-80.
The mark [6] stands for this setting: dose: 400.0 mg/kg/injection, schedule: Q01DX001 (ip), vehicle: saline.
[7] abbreviates: dose: 600.0 mg/kg/injection, schedule: Q01DX001 (ip), vehicle: saline.

The list does not hold the whole screen: it is rich in T/C values a quarter to a half above the control, in often repeated tests (any T/C) and in doses without a T/C. Further doses and runs are listed elsewhere. T/C is the treated group as % of the vehicle group. Some entries give survivors of the animals treated and no T/C: the source files T/C as zero there, which appears to mark a toxic dose or a test without result, not a measured value. Some doses without a T/C left all or most animals alive at the check, yet need not have been tolerated: the source hardly ever lists a survival T/C far under the control, and the zero likely stands for such cases as well. Survivors were counted at the toxicity check, usually on the fifth day, unless a day is given; later deaths do not show. Schedule codes are those of the source, taken here to give the interval after Q, in days (D) or hours (H), and the number of doses after X. Some entries hold several experiments; their values stand side by side, smallest first. Signs of the kind (2×) give the number of equal values in this list. Some schedules carry Z or #; the key to these is not given. Some molecules as drawn cover several salts, stereoisomers or complexes of the source; a dose is that of the sample tested. For survival time, the PubChem record calls one and a half times the control and up active, and a quarter to a half above the control has no call in these data; cut-offs in other NCI protocols can differ. Some T/C values are followed by the survivors on the day toxicity was checked, most often the fifth; where none is given, no animal had died by that day.

With `OCCN1CCN(CCCN2c3ccccc3Sc3ccc(C(F)(F)F)cc32)CC1`, the survivor count is reported as 6 of 6 (dose: 2.5 mg/kg/injection, schedule: Q01DX009 (ip), vehicle: saline); 6 of 6 (dose: 3.12 mg/kg/injection, schedule: Q01DX009 (ip), vehicle: saline); 6 of 6 (dose: 4.68 mg/kg/injection, schedule: Q01DX009 (ip), vehicle: saline); 6 of 6 (dose: 5.0 mg/kg/injection, schedule: Q01DX009 (ip), vehicle: saline); 6 of 6 (dose: 6.25 mg/kg/injection, schedule: Q01DX009 (ip), vehicle: saline); 5 of 6 (dose: 7.7 mg/kg/injection, schedule: Q01DX009 (ip), vehicle: saline). Further, the survivor count (dose: 9.37 mg/kg/injection, schedule: Q01DX009 (ip), vehicle: saline) was 6 of 6; the survivor count (dose: 10.0 mg/kg/injection, schedule: Q01DX009 (ip), vehicle: saline) is recorded as 6 of 6; the survivor count (dose: 11.5 mg/kg/injection, schedule: Q01DX009 (ip), vehicle: saline) is listed as 6 of 6; the survivor count (dose: 12.5 mg/kg/injection, schedule: Q04DX003 (ip), vehicle: saline) is reported as 2 of 4; the survivor count (dose: 18.75 mg/kg/injection, schedule: Q04DX003 (ip), vehicle: Klucel (hydroxypropylcellulose) (HPC)) is recorded as 5 of 6; the survivor count (dose: 20.0 mg/kg/injection, schedule: Q01DX009 (ip), vehicle: saline) is 2 of 6. Moreover, the survivor count under setting [1] is recorded as 0 of 4; the survivor count (dose: 37.5 mg/kg/injection, schedule: Q04DX003 (ip), vehicle: Klucel (hydroxypropylcellulose) (HPC)) was 5 of 6; the survivor count (dose: 50.0 mg/kg/injection, schedule: Q04DX003 (ip), vehicle: saline) is recorded as 0 of 4, 6 of 7, 4 of 4; the survivor count (dose: 75.0 mg/kg/injection, schedule: Q04DX003 (ip), vehicle: Klucel (hydroxypropylcellulose) (HPC)) is 5 of 6; the survivor count under setting [2] was 0 of 4 (2×) and 6 of 7; the survivor count under setting [3] was 0 of 4 (2×) and 0 of 7. In addition, the survivor count under setting [4] is 0 of 4. Also, under setting [1], the T/C is 126, 130, 146 % of control.
Take `Cc1c2cnccc2c(C)c2c1c1ccccc1n2CCNCCO`: the survivor count (dose: 400.0 mg/kg/injection, schedule: Q04DX003 (ip), vehicle: saline sonified) was 6 of 6.
Consider `O=C1NC(=O)C(=Cc2csc3ccccc23)C(=O)N1`, for which, for the setting “dose: 400.0 mg/kg/injection, schedule: Q01DX001 (ip), vehicle: carboxymethylcellulose (CMC)”, the survivor count is given as 2 of 4.
On to `O=C(O)c1cc(N=Nc2cccc([N+](=O)[O-])c2)ccc1O`, for which, under “dose: 250.0 mg/kg/injection, schedule: Q01DX001 (ip), vehicle: Klucel (hydroxypropylcellulose) (HPC)”, the survivor count is reported as 2 of 6.
As to `CCN(CC)c1cccc(O)c1`, under setting [5], the survivor count is given as 3 of 6.
For the compound `C#CC1(OCC(O)CO)CCCCC1` (stereo not drawn), the survivor count (dose: 400.0 mg/kg/injection, schedule: Q01DX009 (ip), vehicle: water) is 0 of 6.
In the case of `Nc1ncnc2c1c(-c1ncn[nH]1)cn2C1OC(CO)C(O)C1O` (stereo not drawn), the T/C is 131 % of control (dose: 0.19 mg/kg/injection, schedule: Q01DX005 (ip), vehicle: saline) and 128 % of control (dose: 0.39 mg/kg/injection, schedule: Q01DX009 (ip), vehicle: saline). Moreover, the survivor count by setting is: (dose: 0.78 mg/kg/injection, schedule: Q01DX005 (ip), vehicle: saline) 6 of 6; (dose: 1.56 mg/kg/injection, schedule: Q01DX005 (ip), vehicle: saline) 0 of 6; (dose: 3.12 mg/kg/injection, schedule: Q01DX005 (ip), vehicle: saline) 0 of 6; (dose: 6.25 mg/kg/injection, schedule: Q01DX005 (ip), vehicle: saline) 0 of 6; (dose: 12.5 mg/kg/injection, schedule: Q01DX005 (ip), vehicle: saline) 1 of 6; (dose: 25.0 mg/kg/injection, schedule: Q01DX005 (ip), vehicle: saline) 0 of 6. Besides, the survivor count (dose: 50.0 mg/kg/injection, schedule: Q01DX005 (ip), vehicle: saline) is recorded as 0 of 6.
Turning to `COC(=O)C1=C(C(=O)OC)[N+](C)(C)N=C1[O-]`, the survivor count runs as follows: under setting [3], 1 of 6; under setting [4], 0 of 6.
For `N#Cc1ccccc1NC(=O)N(CCCl)N=O`, the T/C by setting is: (dose: 4.0 mg/kg/injection, schedule: Q01DX001 (ip), vehicle: carboxymethylcellulose (CMC)) 139 % of control; (dose: 8.0 mg/kg/injection, schedule: Q01DX001 (ip), vehicle: carboxymethylcellulose (CMC)) 133 % of control; (dose: 15.0 mg/kg/injection, schedule: Q01DX001 (ip), vehicle: carboxymethylcellulose (CMC)) 134 % of control; (dose: 20.0 mg/kg/injection, schedule: Q01DX001 (ip), vehicle: carboxymethylcellulose (CMC)) 135 % of control; (dose: 30.0 mg/kg/injection, schedule: Q01DX001 (ip), vehicle: carboxymethylcellulose (CMC), evaluated on day 30) 134 % of control; (dose: 30.0 mg/kg/injection, schedule: Q01DX001 (ip), vehicle: carboxymethylcellulose (CMC), run until all animals had died) 132 % of control. Also, the T/C (dose: 45.0 mg/kg/injection, schedule: Q01DX001 (ip), vehicle: carboxymethylcellulose (CMC)) is 126 % of control. In addition, the survivor count reads like this: (dose: 45.0 mg/kg/injection, schedule: Q01DX009 (ip), vehicle: carboxymethylcellulose (CMC)) 4 of 6; (dose: 60.0 mg/kg/injection, schedule: Q01DX001 (ip), vehicle: carboxymethylcellulose (CMC)) 4 of 6; (dose: 75.0 mg/kg/injection, schedule: Q01DX001 (ip), vehicle: carboxymethylcellulose (CMC)) 5 of 6; (dose: 150.0 mg/kg/injection, schedule: Q01DX001 (ip), vehicle: carboxymethylcellulose (CMC)) 0 of 6; (dose: 300.0 mg/kg/injection, schedule: Q01DX001 (ip), vehicle: carboxymethylcellulose (CMC)) 0 of 6.
With `Nc1ccc(SS(N)(=O)=O)cc1`, under setting [6], the survivor count is recorded as 3 of 6.
Turning to `Fc1cccc(CSc2ncnc3nc[nH]c23)c1`, the T/C is, setting by setting: (dose: 100.0 mg/kg/injection, schedule: Q01DX009 (ip), vehicle: saline) 126 % of control; (dose: 175.0 mg/kg/injection, schedule: Q01DX001 (ip), vehicle: saline) 144 % of control; (dose: 200.0 mg/kg/injection, schedule: Q01DX009 (ip), vehicle: saline) 139 % of control [5 of 6 alive]; (dose: 265.0 mg/kg/injection, schedule: Q01DX001 (ip), vehicle: saline) 127 % of control; under setting [6], 148 % of control [5 of 6 alive]; under setting [7], 131 % of control [5 of 6 alive]. In addition, the survivor count is, setting by setting: under setting [6], 0 of 6; (dose: 400.0 mg/kg/injection, schedule: Q01DX009 (ip), vehicle: saline) 3 of 6; under setting [7], 0 of 6 and 1 of 6; (dose: 800.0 mg/kg/injection, schedule: Q01DX009 (ip), vehicle: saline) 0 of 6.
As to `C=CC/C=C/CCC`, the survivor count (dose: 100.0 mg/kg/injection, schedule: Q01DX001 (ip), vehicle: carboxymethylcellulose (CMC)) is on record as 4 of 4.
`CC(C)/C(=N\[N+](C)(C)C)c1ccccc1`: the survivor count by setting is: (dose: 150.0 mg/kg/injection, schedule: Q01DX001 (ip), vehicle: saline) 0 of 6; (dose: 300.0 mg/kg/injection, schedule: Q01DX001 (ip), vehicle: saline) 0 of 6.
For `Nc1[nH]c(=S)[nH]c(=O)c1N`, the survivor count is recorded as 3 of 6 under setting [2]; 3 of 6 under setting [3]; 0 of 6 under setting [4]; 0 of 6 (dose: 500.0 mg/kg/injection, schedule: Q01DX Z (ip), vehicle: methylcellulose (MC)).
For `CC1=NC2(CCCCC2)C[N+]1(Cc1ccccc1)Cc1ccccc1`, the survivor count is listed as 6 of 6 (dose: 200.0 mg/kg/injection, schedule: Q04DX003 (ip), vehicle: saline with Tween-80) and 3 of 6 under setting [5].

(Values after PubChem BioAssay AID248 (DTP/NCI, 2004).)
